Source: patent US9856247B2, “4-methyl-dihydropyrimidines for the treatment and prophylaxis of Hepatitis B virus infection” (Hoffmann-La Roche Inc., priority 2012, dated 2018)

Assay: Stability in mouse liver homogenate
Details: conclusion in words

Structure (SMILES): COC(=O)C1=C(CN2CC(F)(F)C[C@H]2C(=O)O)NC(c2nccs2)=N[C@@]1(C)c1ccc(F)cc1 [Example 13, (S)-6-((S)-2-Carboxy-4,4-difluoro-pyrrolidin-1-ylmethyl)-4-(4-fluoro-phenyl)-4-methyl-2-thiazol-2-yl-1,4-dihydro-pyrimidine-5-carboxylic acid methyl ester]
- stability in liver homogenate treated with saline: stable
